AC50 data for 63 compounds are collected here from PubChem BioAssay AID493014 (National Center for Advancing Translational Sciences (NCATS), 2011).

Each structure is given as a SMILES string. Some of the results follow. Shown are side measurements of this screen, not its main read-out; they come without a call. Most of these compounds were active or inconclusive in the main read-out, so they are no random draw. Potencies come from curve fits of mixed quality, noted in brackets.

The assay is described as follows: qHTS Assay to Find Inhibitors of Chronic Active B-Cell Receptor Signaling. As to conditions: ABC-DLBCL IkBa-CBG/CBR reporter, luminescence ratio (green luciferase fused to IkBa over red control in TMD8 lymphoma cells), 4 h. Put shortly: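 Doxycycline induced both beetle luciferases in TMD8 lymphoma cells; IKK-driven degradation limits the IkappaBalpha-fused green signal, while red luminescence normalises for cell number and nonspecific effects. Compounds tested up to 46 uM, 4 hrs.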
(In qHTS, concentration-response curves come from the screen itself.)

Setting [1] is: measured here: CBR red luminescence, cell number.
[2] abbreviates: measured here: IkBa-CBG green luminescence.

For `CC(=O)Nc1cccc(OCC(=O)Nc2ccccc2)c1`, the AC50 (commonly the concentration at which the activity in the assay is half-maximal) under setting [1] was 32.6 µM [falling, single point].

On to `CCCSc1nc(NCc2ccco2)c2c3c(sc2n1)COC(C)(CC)C3` (stereo unspecified), for which the half-maximal activity concentration (AC50) under setting [1] was 1.12 µM [falling, full curve, poor fit].

Consider `O=C(c1cccc2nccnc12)N1CCCC(Nc2ccc(F)c(F)c2)C1` (stereo unspecified), for which, under setting [1], the concentration at half-maximal activity (AC50) is 35.5 µM [rising, single point].

Turning to `CC(=O)C1=C(C)NC(SCC(=O)c2ccc(F)cc2)=C(C#N)C1CC(C)C` (stereo unspecified), the concentration at half-maximal activity (AC50) under setting [1] was 0.731 µM [rising, partial curve].

For `Cc1cc(C)n2nc(C(=O)N/N=C/c3ccccc3C)nc2n1`, the half-maximal activity concentration (AC50) under setting [1] was 11.2 µM [falling, partial curve, poor fit].

Take `CCN(C(=O)C1CCCN(c2ncnc3c2nc2n3CCCCC2)C1)c1cccc(Cl)c1` (stereo unspecified): under setting [1], the half-maximal activity concentration (AC50) is 35.5 µM [falling, single point].

As for `CCCN1CCN(CCCNC(=O)Cn2nc(-c3ccc(Cl)cc3)ccc2=O)CC1`, the concentration at half-maximal activity (AC50) under setting [1] was 23.1 µM [rising, partial curve, poor fit].

On to `Cc1c(CCNC(=O)C(C)(C)C)sc2nc(-c3ccc(F)cc3)nn12`, for which the AC50 under setting [1] was 35.5 µM [falling, single point].

Turning to `Cc1onc(-c2c(F)cccc2Cl)c1C(=O)Nc1nnc(C(F)(F)F)s1`, the concentration at half-maximal activity (AC50) under setting [1] was 3.55 µM [rising, single point].

`O=C(NCc1ccco1)C1CCN(C(=O)c2cc3sccc3n2Cc2ccc(F)cc2)CC1`: the AC50 under setting [1] was 29.1 µM [falling, single point].

For `CC(C)(C)[C@@H]1C=C(C(=O)N2CCN(Cc3ccc4c(c3)OCO4)CC2)O[C@H](OCc2ccc(CO)cc2)C1`, under setting [1], the concentration at half-maximal activity (AC50) was 3.55 µM [rising, single point].

Consider `CC(C)CNC(=S)NC(=O)c1ccc(F)cc1`, for which, under setting [1], the concentration at half-maximal activity (AC50) is 20.6 µM [rising, partial curve, poor fit].

Regarding `COCCN(C(=O)C1CC1)c1nnc(-c2ccc(C)cc2)s1`, the half-maximal activity concentration (AC50) under setting [1] was 7.94 µM [rising, partial curve, poor fit].

Turning to `CN(CC(=O)Nc1cccc(F)c1)C(=O)c1ccc2c(c1)CC(c1ccccc1)OC2=O` (stereo unspecified), the concentration at half-maximal activity (AC50) under setting [1] was 23.1 µM [falling, single point].

`OCCNc1c2ccccc2nc2c(F)c(F)c(F)c(F)c12`: under setting [1], the concentration at half-maximal activity (AC50) is 11.6 µM [falling, partial curve, poor fit].

With `COc1ccc(OC)c(N(CC(=O)N2CCCC2)S(C)(=O)=O)c1`, under setting [1], the concentration at half-maximal activity (AC50) was 1.58 µM [rising, full curve, poor fit].

Take `COc1cc(/C=C2/SC(=S)N(c3ccccc3)C2=O)ccc1Oc1nc(N2CCOCC2)nc(N2CCOCC2)n1`: under setting [1], the AC50 was 7.31 µM [rising, partial curve, poor fit].

`COc1cc2c(cc1OC)C(C1(O)CCCCC1)NCC2` (stereo unspecified): the AC50 runs as follows: under setting [1], 5.62 µM [falling, single point]; under setting [2], 2.82 µM [rising, single point].

Take `CC(C)c1ccc(-n2c(-c3ccccc3)c[n+]3c2CCc2ccccc2-3)cc1`: the concentration at half-maximal activity (AC50) under setting [1] was 11.2 µM [falling, partial curve, poor fit].

Consider `O=C(CCCCn1c(=O)[nH]c2ccsc2c1=O)NCC1CCCO1` (stereo unspecified), for which the AC50 under setting [1] was 25.9 µM [rising, partial curve, poor fit].

As to `CC(=O)Nc1cccc(-c2nc3ccc(NC(C)=O)cc3s2)c1`, the AC50 under setting [1] is 12.6 µM [falling, single point].

For the compound `O=C(CCN1C(=O)/C(=C/c2ccc(F)cc2)SC1=S)NCCCn1ccnc1`, the concentration at half-maximal activity (AC50) under setting [1] was 17.8 µM [falling, partial curve, poor fit].

Turning to `O=C(Nc1cccc(F)c1)c1cc(S(=O)(=O)N2CCOCC2)cs1`, under setting [2], the half-maximal activity concentration (AC50) is 35.5 µM [rising, partial curve, poor fit].

In the case of `Cc1ccc(S(=O)(=O)NC(=O)c2cc(C)n(-c3cc(S(=O)(=O)N4CCOCC4)ccc3N3CCCC3)c2C)cc1`, under setting [1], the half-maximal activity concentration (AC50) was 4.11 µM [falling, partial curve, poor fit].

`S=C(c1ccc(-c2ccc(Br)cc2)o1)N1CCOCC1`: the AC50 under setting [1] is 0.891 µM [rising, full curve, poor fit].

Regarding `COc1cc(OC)cc(C(=O)NCCOc2ccccc2)c1`, the AC50 under setting [1] is 0.291 µM [rising, full curve, poor fit].

On to `COc1ccc(Nc2nc3ccccc3n3cnnc23)cc1Cl`, for which the half-maximal activity concentration (AC50) under setting [1] is 0.891 µM [rising, full curve, poor fit].

Regarding `Cc1cc2nccc(-c3ccc(OCCCF)cc3)n2n1`, the AC50 under setting [1] was 1 µM [rising, full curve, poor fit].

As to `CCOC(=O)C1=C(COC(=O)CNC(=O)c2cccc(C)c2)NC(=O)NC1C` (stereo unspecified), the concentration at half-maximal activity (AC50) under setting [1] is 18.4 µM [rising, partial curve, poor fit].

With `O=c1c2c(nc3cc(-c4cccc(Cl)c4)[nH]n13)CCC2`, the concentration at half-maximal activity (AC50) under setting [1] is 4.47 µM [falling, full curve, poor fit].

Take `O=C(COC(=O)CCC(=O)c1cccs1)NCc1ccco1`: the AC50 under setting [1] was 29.1 µM [falling, single point].

Regarding `CC1CCCCN1C(=O)CSc1nnc(-c2c[nH]c3ccccc23)o1` (stereo unspecified), the AC50 under setting [1] is 12.6 µM [falling, partial curve].

In the case of `CCC(CC)n1[nH]c(=O)cc1N`, the AC50 under setting [1] was 25.9 µM [falling, single point].

For the compound `CCC(C)Sc1nc(O)c(Cc2ccccc2)c(=O)[nH]1` (stereo unspecified), the AC50 under setting [1] is 25.9 µM [falling, single point].

Consider `CCn1ccc(C(=O)Nc2sc3c(c2C(=O)OC)CCC3)n1`, for which, under setting [1], the half-maximal activity concentration (AC50) is 2.82 µM [falling, full curve].

Take `COc1ccccc1NC(=S)N/N=C/c1ccc(O)cc1`: the AC50 under setting [1] is 23.1 µM [falling, partial curve, poor fit] and the half-maximal activity concentration (AC50) under setting [2] was 20.6 µM [falling, partial curve, poor fit].

Regarding `N=c1c(C(=O)NC2CCCCC2)cc2c(=O)n3ccccc3nc2n1CC1CCCO1` (stereo unspecified), the AC50 under setting [1] was 8.91 µM [rising, partial curve].

As for `CSc1nc(C)cc(C)c1C(N)=O`, the AC50 under setting [1] was 0.103 µM [falling, full curve, poor fit].

`COc1ccc(C(=O)N2CCN(C(=O)c3cc(OC)c(OC)c(OC)c3)CC2)cc1`: the half-maximal activity concentration (AC50) under setting [1] was 29.1 µM [rising, single point].

For `N#Cc1c(NC(=S)NC(=O)C2CCCC2)sc2c1CCCCC2`, the AC50 under setting [1] is 0.82 µM [rising, full curve, poor fit].

Regarding `CCCCC(=O)Nc1ccc(NC(=O)CCCC)nc1`, the half-maximal activity concentration (AC50) under setting [1] is 0.326 µM [rising, full curve, poor fit].

Regarding `COc1ccc(-c2noc(CCC(=O)N3CCN(c4ccccc4C)CC3)n2)cc1`, the AC50 under setting [1] was 6.51 µM [rising, partial curve, poor fit].

Take `CSC1=N/C(=C\c2cccc(Cl)c2)C(=O)N1N(C)C`: the AC50 under setting [1] was 12.6 µM [rising, partial curve, poor fit].

Regarding `O=c1[nH]c2cc3c(cc2cc1C(c1nnnn1CC1CCCO1)N1CCCC1)OCO3` (stereo unspecified), the AC50 under setting [1] is 13 µM [rising, partial curve, poor fit].

As to `C/C=C/c1ccc(OCCOc2ccc(C=O)cc2)c(OC)c1`, the half-maximal activity concentration (AC50) under setting [1] is 29.1 µM [rising, single point].

As for `Cc1cc([N+](=O)[O-])ccc1NC(=O)/C=C/c1cccs1`, under setting [1], the concentration at half-maximal activity (AC50) was 0.651 µM [rising, full curve, poor fit].

Regarding `COc1cc(-c2nnc(SCC(=O)c3ccc(C)cc3)o2)cc(OC)c1OC`, the AC50 under setting [2] was 13 µM [falling, partial curve, poor fit].

As for `COc1ccc(CC(C#N)(CO)c2nc3ccccc3[nH]2)cc1` (stereo unspecified), the concentration at half-maximal activity (AC50) under setting [1] is 32.6 µM [falling, single point].

For `O=C(CCl)NCCCCCCCCCNC(=O)CCl`, the AC50 under setting [1] is 32.6 µM [falling, single point].

On to `COc1cc(C2CC(=O)Oc3c(C(CCN4CCOCC4)c4ccc(N(C)C)cc4)c(OC)cc(OC)c32)cc(OC)c1OC` (stereo unspecified), for which the AC50 under setting [1] is 0.708 µM [rising, full curve, poor fit].

With `COc1cc(CN2CCCC(CO)(Cc3cccc(Cl)c3)C2)cc2c1OCO2` (stereo unspecified), the half-maximal activity concentration (AC50) under setting [1] was 0.501 µM [rising, partial curve, poor fit].

Turning to `Nc1nc(Cl)nc2c1ncn2[C@@H]1O[C@H](CO)[C@@H](O)[C@H]1O`, the AC50 reads like this: under setting [1], 7.31 µM [rising, partial curve]; under setting [2], 1 µM [falling, full curve].

Consider `COc1ccccc1CNC(=O)[C@H](Cc1c[nH]c2ccccc12)NC(=O)[C@@H]1Cc2ccccc2CN1`, for which the concentration at half-maximal activity (AC50) under setting [1] is 20 µM [falling, single point].

Turning to `Cc1nnc(SCC(=O)NCc2ccccc2Cl)n(N)c1=O`, the AC50 under setting [1] was 16.4 µM [rising, single point].

Turning to `COc1ccc(-c2ccc(=O)n(CC(=O)Nc3ccc(OC)c(OC)c3)n2)cc1`, the AC50 under setting [2] was 12.6 µM [rising, partial curve, poor fit].

`CCC(=O)Nc1c(C)nn(-c2ccc(C)c(C)c2)c1C`: under setting [1], the concentration at half-maximal activity (AC50) was 20.6 µM [rising, partial curve].

In the case of `O=[N+]([O-])c1cccc(C2=NCCC(c3ccccc3)O2)c1` (stereo unspecified), the half-maximal activity concentration (AC50) under setting [1] is 10.3 µM [rising, partial curve].

Consider `COc1ccc(CNC(=O)c2cc(-c3cccs3)on2)cc1`, for which the AC50 under setting [1] was 5.01 µM [falling, partial curve, poor fit].

As to `CCn1c2ccccc2c2cc(NC(=O)c3cccc(OC)c3)ccc21`, under setting [1], the half-maximal activity concentration (AC50) is 5.8 µM [falling, single point].

Take `CC1CCCCC1NC(=O)CCCc1nc2ccccc2c(=O)[nH]1` (stereo unspecified): the concentration at half-maximal activity (AC50) under setting [1] was 29.1 µM [rising, single point].

Consider `CC(=O)c1cccc(NC(=O)CN2C(=O)C(=O)N(Cc3ccco3)C2=O)c1`, for which the AC50 under setting [1] was 4.11 µM [rising, full curve, poor fit].

For the compound `CCNc1oc(/C=C/c2ccc(OCC)cc2)nc1C#N`, the concentration at half-maximal activity (AC50) under setting [1] was 5.01 µM [rising, single point].

For `Cc1cc(C(=O)Nc2c(C)nn(Cc3ccccc3)c2C)on1`, the AC50 under setting [1] was 0.731 µM [rising, partial curve, poor fit].
